Measurements reported in PubChem BioAssay AID602196 (INSERM, 2012).

Aim: 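Modifiers of cisplatin sensitivity in A549 cells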
System: human A549 lung cancer cells
Reagent: siRNA pair against human genes
Duration: 48 h transfection before cisplatin; time from cisplatin to read-out not stated
Conditions: cisplatin at a dose killing half of control-siRNA cells; exact dose and duration not given
Measurement: 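Cisplatin cell death as a shift from the 50% death seen with control siRNA; siRNAs toxic or growth-blocking alone scored 0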
Scale: two-siRNA summed score (-2 to +2): higher = both siRNAs protect from cisplatin killing; -2 means both sensitise; mean protection from cisplatin (shift in death) and protection from cisplatin (shift in death), siRNA C and protection from cisplatin (shift in death), siRNA D: higher = protection from cisplatin killing
Call rule: 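Each siRNA scores 0 if harmful alone by LDH or WST-1, otherwise +1 if it reduces and -1 if it increases cisplatin killing; a gene is active when both siRNAs agree (sum +2 or -2)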
Meaning of the calls: active = both siRNAs shift cisplatin killing the same way; inactive = no consistent shift, or siRNA harmful alone
The deposit covers about 23,000 reagents; this is an unselected part. 455 of them (2%) count as active. 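Active includes both protection and sensitisation; some change values fall well beyond the stated -50 to +50 range.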 A number with no mark means an inactive call. Reagent sequences are not shown. The record does not give: the amount of reagent.

two-siRNA summed score (-2 to +2)	mean protection from cisplatin (shift in death) (%)	protection from cisplatin (shift in death), siRNA C (%)	protection from cisplatin (shift in death), siRNA D (%)	Gene
0	5.8	1.7	10	LOC392347
1	10.8	6.8	14.9	PURG
0	8.1	6.5	9.8	PPIAP43
0	9.9	8.3	11.5	LOC392542
0	0.5	6.3	-5.4	FZD6
0	5.7	-0.3	11.7	C12orf43
0	7.2	2.5	11.9	SERPINB11
-1	-12	-1.9	-22.1	HEYL
0	13	19.6	6.4	PPP4R3A
0	18.5	19.1	17.9	LOC343839
0	2.8	6.2	-0.5	LOC441444
0	-6.7	-4.4	-9.1	BAIAP2L2
0	17.1	13.5	20.7	LOC150739

6 consecutive entries already listed:
two-siRNA summed score (-2 to +2)	mean protection from cisplatin (shift in death) (%)	protection from cisplatin (shift in death), siRNA C (%)	protection from cisplatin (shift in death), siRNA D (%)	Gene
0	7.2	2.5	11.9	SERPINB11
-1	-12	-1.9	-22.1	HEYL
0	13	19.6	6.4	PPP4R3A
0	18.5	19.1	17.9	LOC343839
0	2.8	6.2	-0.5	LOC441444
0	-6.7	-4.4	-9.1	BAIAP2L2

Further reagents follow.
two-siRNA summed score (-2 to +2)	mean protection from cisplatin (shift in death) (%)	protection from cisplatin (shift in death), siRNA C (%)	protection from cisplatin (shift in death), siRNA D (%)	Gene
2 (active)	12.3	13.6	11	THYN1
-1	-23	-12.1	-33.9	TGM5
0	-7.5	-4.9	-10.2	PRKAG1
1	7.7	14.8	0.6	PIP5K1A
0	0.9	2.3	-0.4	ABHD18
0	2.1	4.1	0.2	CATSPERB
1	8.6	-2.3	19.5	CD300A
0	-6	-5.6	-6.4	ELL
1	13.4	13.1	13.6	PARVB
0	5.4	1.6	9.2	LOC441509
0	2.6	2.6	2.6	KBTBD2
0	-4	2.3	-10.3	LOC441626
-1	2.4	13.7	-9	SLC30A3
-1	-22.4	-11.8	-33	BCL2L1
1	10	32.2	-12.2	KRT10
0	6.8	12.8	0.8	SP110
0	6.4	10.7	2.1	C1orf174
1	2.8	-16.3	22	TRIM25
0	12.7	16.8	8.6	BEGAIN
1	7.4	-3.7	18.4	PSMA5
-1	-2.1	7.1	-11.4	CLC
0	9.2	9.3	9.1	ZNF548
1	5.2	8	2.3	POLR3A
0	12.7	15.9	9.5	SCIN
0	7.3	6.6	8	MYL12BP2
0	5.4	0.7	10.2	LOC388002
